Measurements published in publication PMC10802047.
These are yes or no findings as the source states them, for the method shown. In cells and extracts the contact can be indirect. Some binding calls cover weakened binding; strength is not graded here.

Chains of the proteins cited; added tags and fusions are not shown.
UniProt Q9UJU2: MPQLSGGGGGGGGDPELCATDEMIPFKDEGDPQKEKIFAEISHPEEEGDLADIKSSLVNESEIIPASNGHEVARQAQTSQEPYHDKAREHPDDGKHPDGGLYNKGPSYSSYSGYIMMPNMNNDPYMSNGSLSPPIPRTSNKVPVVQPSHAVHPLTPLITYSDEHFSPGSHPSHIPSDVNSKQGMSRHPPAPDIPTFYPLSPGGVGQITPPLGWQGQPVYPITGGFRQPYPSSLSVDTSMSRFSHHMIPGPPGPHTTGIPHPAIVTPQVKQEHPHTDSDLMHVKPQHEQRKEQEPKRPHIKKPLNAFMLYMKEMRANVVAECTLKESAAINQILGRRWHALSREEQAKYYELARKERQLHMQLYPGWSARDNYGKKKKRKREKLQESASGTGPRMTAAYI

Molecular target: Lymphoid enhancer-binding factor-1 (LEF1) (human (in human HCC cell lines)) (UniProt Q9UJU2)
Test: co-IP; protein samples of HCC cells incubated with LEF1 antibody (1:50) or IgG overnight at 4 °C, Protein A/Protein G magnetic beads 3 h at 4 °C, washed, eluted in SDS loading buffer, western blot; legend calls it an exogenous IP

B1: Zinc finger MIZ type containing 2 (ZMIZ2) (protein, UniProt Q8NF64 1-920)
chain: MNSMNPMKPALPPAPHGDGSFAYESVPWQQSATQPAGSLSVVTTVWGVGNATQSQVLGNPMGPAGSPSGSSMMPGVAGGSSALTSPQCLGQQAFAEGGANKGYVQQGVYSRGGYPGAPGFTTGYAGGPGGLGLPSHAARPSTDFTQAAAAAAVAAAAATATATATATVAALQEKQSQELSQYGAMGAGQSFNSQFLQHGGPRGPSVPAGMNPTGIGGVMGPSGLSPLAMNPTRAAGMTPLYAGQRLPQHGYPGPPQAQPLPRQGVKRTYSEVYPGQQYLQGGQYAPSTAQFAPSPGQPPAPSPSYPGHRLPLQQGMTQSLSVPGPTGLHYKPTEQFNGQGASFNGGSVSYSQPGLSGPTRSIPGYPSSPLPGNPTPPMTPSSSVPYMSPNQEVKSPFLPDLKPNLNSLHSSPSGSGPCDELRLTFPVRDGVVLEPFRLQHNLAVSNHVFQLRDSVYKTLIMRPDLELQFKCYHHEDRQMNTNWPASVQVSVNATPLTIERGDNKTSHKPLYLKHVCQPGRNTIQITVTACCCSHLFVLQLVHRPSVRSVLQGLLKKRLLPAEHCITKIKRNFSSGTIPGTPGPNGEDGVEQTAIKVSLKCPITFRRIQLPARGHDCRHIQCFDLESYLQLNCERGTWRCPVCNKTALLEGLEVDQYMLGILIYIQNSDYEEITIDPTCSWKPVPVKPDMHIKEEPDGPALKRCRTVSPAHVLMPSVMEMIAALGPGAAPFAPLQPPSVPAPSDYPGQGSSFLGPGTFPESFPPTTPSTPTLAEFTPGPPPISYQSDIPSSLLTSEKSTACLPSQMAPAGHLDPTHNPGTPGLHTSNLGAPPGPQLHHSNPPPASRQSLGQASLGPTGELAFSPATGVMGPPSMSGAGEAPEPALDLLPELTNPDELLSYLGPPDLPTNNNDDLLSLFENN
binding: binds
